Source: PMC3172808 (Journal of medicinal chemistry, 2011)
pIC50: −log10 of the molar value.

Tested on: A2780
Test: potency toward A2780
Assay type: cell-based, human
Details: read-out: drug IC50 A2780

Structure (SMILES): N.N.[Cl][Pt][Cl] [cisplatin]
- pIC50: 6.48
